Source: PubChem BioAssay AID1259424 (University of Nebraska Medical Center, 2018)
In all, the deposit lists about 14,000 reagents; shown is an unselected part. 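Higher correlation or smaller distance means closer resemblance to KSR1 loss; control wells, including KSR1 knockdowns, recur on many plates.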 Reagent sequences are not shown. Not given: the time to read-out.

Test: 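Seek colon cancer survival genes behaving like KSR1, using a six-gene signature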 (primary screen)
System: human HCT116 colon cancer cells
Knock-down reagent: siRNA pool against human genes, 50 nM
Measured: 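Log2 levels of six mRNAs (branched-DNA multiplex), adjusted by two reference genes and the non-targeting median, then scored against the average KSR1 knockdown pattern as Pearson r and euclidean distance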
Reading the numbers: mean correlation with KSR1 profile and KSR1 correlation: higher = expression change more like KSR1 knockdown; mean distance from KSR1 profile: higher = expression change less like KSR1 knockdown

target,mean correlation with KSR1 profile,mean distance from KSR1 profile,"KSR1 correlation, replicate 1","KSR1 correlation, replicate 2","KSR1 correlation, replicate 3"
TLR7,0.108,1.61,0.194,0.0167,0.18
ZNF627,-0.0982,2.82,0.0513,-0.0124,-0.0413
SYNE3,0.326,1.66,0.426,0.444,0.0338
GBA1,-0.439,2.46,-0.252,-0.657,-0.549
ABCD3,0.286,2.32,0.42,0.256,0.347
DCTN1,0.369,1.84,0.375,0.372,0.317
MUC3A,-0.603,2,-0.615,-0.583,-0.308
SLCO2B1,0.293,2.23,0.374,-0.0942,0.746
ETV6,0.898,2.37,0.458,0.866,0.855
TWIST1,0.121,2.57,0.329,0.118,-0.042
PID1,-0.433,1.93,-0.256,-0.273,-0.0652
PDPK1,0.291,2.11,0.318,0.141,0.427
HIPK4,0.319,2.2,0.0993,0.455,0.0598
KLF10,-0.713,3.7,-0.6,-0.769,-0.567
GLRA3,0.199,1.72,0.206,0.259,0.0549
TWIST2,0.0679,3.62,0.125,0.0207,0.271
EGR2,-0.28,6.53,-0.0795,-0.281,-0.464
BNIP1,-0.0691,2.56,-0.444,-0.364,0.243
TRMT13,0.489,2.28,0.549,0.382,0.508
UTF1,0.0194,1.79,0.117,0.377,-0.18
SHANK3,0.138,1.76,0.106,0.094,0.179
PCOLCE,0.749,1.09,0.796,0.83,0.508
BNIP3L,-0.515,4.97,-0.583,-0.591,-0.539
MS4A4A,0.0575,1.7,0.224,-0.0583,0.161

Sorted by “KSR1 correlation, replicate 2” (lowest first): some entries from above
target,mean correlation with KSR1 profile,mean distance from KSR1 profile,"KSR1 correlation, replicate 1","KSR1 correlation, replicate 2","KSR1 correlation, replicate 3"
BNIP1,-0.0691,2.56,-0.444,-0.364,0.243
EGR2,-0.28,6.53,-0.0795,-0.281,-0.464
SHANK3,0.138,1.76,0.106,0.094,0.179
UTF1,0.0194,1.79,0.117,0.377,-0.18
TRMT13,0.489,2.28,0.549,0.382,0.508
PCOLCE,0.749,1.09,0.796,0.83,0.508

More records follow.
target,mean correlation with KSR1 profile,mean distance from KSR1 profile,"KSR1 correlation, replicate 1","KSR1 correlation, replicate 2","KSR1 correlation, replicate 3"
DOK2,-0.247,2.57,-0.15,-0.309,-0.281
NPTN,-0.484,2.15,-0.425,-0.405,-0.645
EPS8L1,0.533,2.21,0.176,0.552,0.216
IL13RA2,0.258,0.907,0.842,-0.0484,0.0967
EMG1,0.0616,3.02,0.00381,-0.0678,0.159
LGALS7,-0.604,2.1,-0.721,-0.703,-0.427
RBP1,-0.557,1.65,-0.344,-0.731,-0.357
HAP1,0.392,1.23,0.61,0.0885,0.421
ITGA1,-0.0548,1.59,-0.417,0.0318,0.0334
DMRT3,-0.89,3.35,-0.726,-0.889,-0.973
TMEM50B,0.398,2.82,0.403,0.234,0.411
CD99L2,0.588,1.25,0.268,0.562,0.617
MTUS1,-0.202,2.85,-0.375,-0.303,-0.124
BCL2L1,-0.235,3.18,-0.568,-0.208,-0.275
LINC00652,-0.356,2.06,-0.531,-0.45,-0.343
LMO3,-0.00977,2.54,0.0123,-0.287,-0.000368
FUS,-0.539,1.55,-0.401,-0.894,-0.896
SLC9D1,-0.327,2.59,-0.411,-0.251,-0.252
NPPB,0.682,1.18,0.837,0.729,0.314
PTBP1,-0.767,2.27,-0.786,-0.867,-0.778
DDX3X,0.293,1.92,0.298,0.389,0.0929
NUSAP1,-0.272,3.27,-0.407,-0.402,-0.301
ARF1,-0.181,2.31,-0.359,-0.425,0.13
CCDC134,0.0534,1.61,-0.47,-0.359,0.261
NIPSNAP3A,-0.19,2.19,-0.158,-0.336,-0.012
SMPX,0.109,1.78,0.461,-0.123,-0.0611
